From patent US9981043B2, “Analgesic conjugates” (priority 2013, dated 2018)

Tests used:
Assay type in all cases: in vivo
LPS pretreated mice = assay: Radiant tail flick antinociception, LPS pretreated mice; details: for Relative potency: mouse, in vivo
Protocol: (§1) Compounds were dissolved in 10% DMSO and then diluted to less than 1% DMSO in the test solutions. […] Compounds were administered in a 5-μl volume in conscious mice, either i.c.v. (Haley T J & McCormick W G, Br J Pharmacol Chemother, 1957, 12(1), 12-15) or i.t. (Hylden J L K & Wilcox G L, Eur. J. Pharmacol., 1980, 67(2-3), 313-316). Peak times were determined by comparing the percent maximal possible effect (% MPE) at 5, 10, 20 and 60 minutes after injection.
The first group mice were pretreated with lipopolysaccaride (LPS, 1 mg/kg, i.p. from Escherichia coli 0111:B4; Sigma-Aldrich, St. Louis, Mo.) for 24 hours before testing for antinociception of compounds 2-6 (Seo Y-J, et al., Pharmacol., Biochem. Behav., 2008, 91, 121-127). This group was compared to a group without pretreatment.
(§2) The tail flick assay is used first to test for antinociception as described by D'Amour and Smith (D'AMOUR FE & SMITH DL (1941) J. Pharmacol. Exp. Ther. 72(1):74-79) and modified by Dewey et al. (Dewey W L, Harris L S, Howes J F, & Nuite JA (1970) J. Pharmacol. Exp. Ther. 175(2):435-442). For the measurement of the tail-flick latency, mice are wrapped in a light cloth and held gently in one hand with the tail positioned in the apparatus (Tail Flick Analgesia Meter, Columbus Instruments, Columbus, Ohio) for radiant heat stimulus. The tail-flick response is elicited by applying radiant heat to the dorsal side of the tail. The intensity of the heat is set so that the mouse flicks its tail within 2 to 3 seconds. The test latency is measured before drug treatment (control) and again after the drug treatment (test) at the peak time of the compound; a 10 second maximum cut-off time is used to prevent damage to the tail. Antinociception is quantified according to the Harris L S & Pierson A K, J. Pharmacol. Exp. Ther., 1964, 143(2):141-148, as the percent maximal possible effect (% MPE), which is calculated as: % MPE=(Test−Control/10−Control)×100.
(§3) At least three groups of four to ten mice are used for each dose response curve. ED50 values with 95% confidence intervals (C.I.) are computed with GraphPad Prism 4 by using nonlinear regression methods.

control mice = assay: Radiant tail flick antinociception, control (not pretreated) mice; details: for i.c.v./i.t. ratio: controls
Protocol: as §1, §2, §3

[1] = tested on: C3H mice with bone cancer; assay: von Frey mechanical hyperalgesia, bone cancer (fibrosarcoma) mice; details: i.t.
Protocol: The mouse hind paw model of bone cancer was the third model of pain (Wacnik P W, et al., Pain Research & Management, 2000, 16, 615-637; and Wacnik P W, et al., J Neurosci, 2001, 21(23), 9355-9366). Cell Culture: National Collection of Type Cultures (NCTC) clone 2472 fibrosarcoma cells, originally derived from a connective tissue tumor in a C3H mouse, were obtained from the American Type Cell Culture Collection (Rockville, Md.). Cells were grown and maintained in accordance with standard cell culturing techniques. […]
Cells were prepared for implantation by first pouring off the culture medium and washing with phosphate-buffered saline (PBS). […] Fibrosarcoma cells were re-suspended in a known amount of PBS for counting, quantified on a hemacytometer, pelleted and re-suspended in PBS. […]
C3H mice were was placed under a clean glass cup on a wire mesh grid and allowed to acclimate for thirty minutes. […] Starting with the right hind paw, the number of positive responses out of a total of 10 applications was recorded followed by the left hind paw. […] Subsequent measurements were taken at various time points after intrathecal (i.t.) injection of test compounds on days 3, 7, 10, 14, 17, and 21. % MPE was calculated ((Time-point value−Day# baseline)/(Day 0 baseline−day# baseline))*100 (Smeester B A, Al-Gizawiy M, & Beitz A J (2012) Evidence-Based Complementary and Alternative Medicine 2012:16). […]

SMILES | i.c.v./i.t. ratio (LPS pretreated mice; LPS pretreated) | Relative potency (LPS pretreated mice) | i.c.v./i.t. ratio (control mice) | also measured
Cc1cccc(C#Cc2cccc(OCCNC(=O)COCC(=O)NCCCNC(=O)COCC(=O)N[C@H]3CC[C@@]4(O)C5Cc6ccc(O)c7c6[C@@]4(CCN5C)[C@H]3O7)c2)n1 [Compound 4b, N-((4aS,7S,7aR,12bS)-4a,9-dihydroxy-3-methyl-2,3,4,4a,5,6,7,7a-octahydro-1H-4,12-methanobenzofuro[3,2-e]isoquinolin-7-yl)-2-((1-(3-((6-methylpyridin-2-yl)ethynyl)phenoxy)-4,8,14-trioxo-6-oxa-3,9,13-triazapentadecan-15-yl)oxy)acetamide] | 6.38 | 33 | 3.14 | –
COc1cccc(C#Cc2cccc(C)n2)c1 [Compound 2, 2-((3-methoxyphenyl)ethynyl)-6-methylpyridine, reference compound] | – | – | 1 | –
Cc1cccc(C#Cc2cccc(OCCNC(=O)COCC(=O)NCCCCCCCNC(=O)COCC(=O)N[C@H]3CC[C@@]4(O)C5Cc6ccc(O)c7c6[C@@]4(CCN5C)[C@H]3O7)c2)n1 [Compound 4d, N-((4aS,7S,7aR,12bS)-4a,9-dihydroxy-3-methyl-2,3,4,4a,5,6,7,7a-octahydro-1H-4,12-methanobenzofuro[3,2-e]isoquinolin-7-yl)-2-((1-(3-((6-methylpyridin-2-yl)ethynyl)phenoxy)-4,8,18-trioxo-6-oxa-3,9,17-triazanonadecan-19-yl)oxy)acetamide] | 1,648 | 83 | – | lower potency than compound 4c (LPS pretreated mice; LPS pretreated, i.t.): 25 fold; less potent (i.c.v.) (control mice; control mice, i.c.v.): 10 fold
Cc1cccc(C#Cc2cccc(OCCNC(=O)COCC(=O)NCCNC(=O)COCC(=O)N[C@H]3CC[C@@]4(O)C5Cc6ccc(O)c7c6[C@@]4(CCN5C)[C@H]3O7)c2)n1 [Compound 4a, N-((4aS,7S,7aR,12bS)-4a,9-dihydroxy-3-methyl-2,3,4,4a,5,6,7,7a-octahydro-1H-4,12-methanobenzofuro[3,2-e]isoquinolin-7-yl)-2-((14-(3-((6-methylpyridin-2-yl)ethynyl)phenoxy)-2,7,11-trioxo-9-oxa-3,6,12-triazatetradecyl)oxy)acetamide] | 3.93 | 16 | 3.48 | –
Cc1cccc(C#Cc2cccc(OCCNC(=O)COCC(=O)NCCCCCNC(=O)COCC(=O)N[C@H]3CC[C@@]4(O)C5Cc6ccc(O)c7c6[C@@]4(CCN5C)[C@H]3O7)c2)n1 [Compound 4c, N-((4aS,7S,7aR,12bS)-4a,9-dihydroxy-3-methyl-2,3,4,4a,5,6,7,7a-octahydro-1H-4,12-methanobenzofuro[3,2-e]isoquinolin-7-yl)-2-((1-(3-((6-methylpyridin-2-yl)ethynyl)phenoxy)-4,8,16-trioxo-6-oxa-3,9,15-triazaheptadecan-17-yl)oxy)acetamide] | > 40,000 and 42,457 | – | – | more potent than a mixture of monovalent ligands ([1]; all time points evaluated): about 250,000 fold
Cc1cccc(C#Cc2cccc(OCCNC(=O)COCC(=O)N[C@H]3CC[C@@]4(O)C5Cc6ccc(O)c7c6[C@@]4(CCN5C)[C@H]3O7)c2)n1 [Compound 3, N-((4aS,7S,7aR,12bS)-4a,9-dihydroxy-3-methyl-2,3,4,4a,5,6,7,7a-octahydro-1H-4,12-methanobenzofuro[3,2-e]isoquinolin-7-yl)-2-(2-((2-(3-((6-methylpyridin-2-yl)ethynyl)phenoxy)ethyl)amino)-2-oxoethoxy)acetamide] | – | 41 | 4.62 | more potent than the mixture (5+6) ([1]; PID 21): about 62,000
CNC(=O)COCC(=O)NCCCNC(=O)COCC(=O)NCCOc1cccc(C#Cc2cccc(C)n2)c1 [Compound 6, N-methyl-2-(1-(3-((6-methylpyridin-2-yl)ethynyl)phenoxy)-4,8,14-trioxo-6-oxa-3,9,13-triazapentadecan-15-yloxy)acetamide] | – | – | – | less potent than compounds 4a-4c (control mice; control mice, i.t.): about 70 fold

“And” between values parts separate entries of the source, which are not always exact repeats. Equal entries are not always repeated.
